Source: paper doi:10.1101/2022.08.30.505862
For part of these data: A weaker result is weaker than the reference pair of the same experiment. For part of these data: Construct, isoform or probe ends are uncertain for at least one entry. For part of these data: At least one verdict rests on a figure or table, not on a statement of the authors.

Chains of the proteins cited; added tags and fusions are not shown. Residues count along the entry.
UniProt Q14498, 247-332 R289A: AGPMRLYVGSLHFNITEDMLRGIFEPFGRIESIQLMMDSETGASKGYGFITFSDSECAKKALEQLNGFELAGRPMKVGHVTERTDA
UniProt Q14498, 247-332 H258A: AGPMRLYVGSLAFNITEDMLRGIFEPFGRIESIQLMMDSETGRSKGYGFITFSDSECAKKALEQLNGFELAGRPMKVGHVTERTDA
UniProt Q14498, 143-332: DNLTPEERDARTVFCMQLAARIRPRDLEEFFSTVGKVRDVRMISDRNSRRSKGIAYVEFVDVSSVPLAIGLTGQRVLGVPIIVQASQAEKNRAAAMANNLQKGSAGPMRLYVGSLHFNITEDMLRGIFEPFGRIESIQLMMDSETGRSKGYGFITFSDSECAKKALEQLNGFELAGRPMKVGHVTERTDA

How the values were obtained:
[1] = molecular target: RBM39 RRM2 R289A (UniProt Q14498); assay: ITC; conditions: Kd only in figure
[2] = molecular target: RBM39 RRM2 H258A (UniProt Q14498); assay: ITC; conditions: Kd only in figure
[3] = molecular target: GB1-RBM39-RRM12 (UniProt Q14498); assay: NMR CSP; conditions: letters put together from the description

Sequence	binding result [1]	binding result [2]	binding result [3]
AGCUUUG [AGCUUUG ssRNA]	binds more weakly	binds more weakly	–
GGGAUUUCCCCAAAUGUGGGAAACUCCC [U1 snRNA SL3]	–	–	binds
